The target in the test is AMPKα (α catalytic subunit of AMPK) (mouse (endogenous in DRG)). The experiment in a line: co-IP.

No constants are given. Whether binding was seen depends on the method and setting. Binding seen in cells or lysates may run through a third protein. Binding can be weak; no strength is given.

B1: PSMD13 (proteasomal protein) (protein, UniProt Q9WVJ2 1-376)
chain: MKDVPAFLQQSQSSGPGQAAVWHRLEELYTKKLWHQLTLEVLDFVQDPCFAQGDGLIKLYENFISEFEHRVNPLSLVEIILHVVRQMTDPNVALTFLEKTREKVKSSDEAVILCKTAIGALKLNIGDLQATKETIEDVEEMLNNLPGVTSVHSRFYDLSSKYYQTIGNHASYYKDALRFLGCVDIKDLPVSEQQERAFTLGLAGLLGEGVFNFGELLMHPVLESLRDTDRQWLIDTLYAFNSGAVDRFQTLKCAWGQQPDLAANEAQLLRKIQLLCLMEMTFTRPANHRQLTFEEIAKSAKITVNKVELLVMKALSVGLVRGSIDEVDKRVHMTWVQPRVLDLQQIKGMKDRLELWCTDVKSMEMLVEHQAQDILT
In the case of B1, the binding entry is reported as “binds”.

B2: GPHN (postsynaptic protein) (protein, UniProt Q8BUV3 1-769)
chain: MATEGMILTNHDHQIRVGVLTVSDSCFRNLAEDRSGINLKDLVQDPSLLGGTISAYKIVPDEIEEIKETLIDWCDEKELNLILTTGGTGFAPRDVTPEATKEVIEREAPGMALAMLMGSLNVTPLGMLSRPVCGIRGKTLIINLPGSKKGSQECFQFILPALPHAIDLLRDAIVKVKEVHDELEDLPSPPPPLSPPPTTSPHKQTEDKGVQCEEEEEEKKDSGVASTEDSSSSHITAAALAAKIPDSIISRGVQVLPRDTASLSTTPSESPRAQATSRLSTASCPTPKQIRRPDESKGVASRVGSLKARLPSCSSTYSVSEVQSRCSSKENILRASHSAVDITKVARRHRMSPFPLTSMDKAFITVLEMTPVLGTEIINYRDGMGRVLAQDVYAKDNLPPFPASVKDGYAVRAADGPGDRFIIGESQAGEQPTQTVMPGQVMRVTTGAPIPCGADAVVQVEDTELIRESDDGTEELEVRILVQARPGQDIRPIGHDIKRGECVLAKGTHMGPSEIGLLATVGVTEVEVNKFPVVAVMSTGNELLNPEDDLLPGKIRDSNRSTLLATIQEHGYPTINLGIVGDNPDDLLNALNEGISRADVIITSGGVSMGEKDYLKQVLDIDLHAQIHFGRVFMKPGLPTTFATLDIDGVRKIIFALPGNPVSAVVTCNLFVVPALRKMQGILDPRPTIIKARLSCDVKLDPRPEYHRCILTWHHQEPLPWAQSTGNQMSSRLMSMRSANGLLMLPPKTEQYVELHKGEVVDVMVIGRL
Regarding B2, the binding entry was “binds”.

B3: PSMD7 (proteasomal protein) (protein, UniProt P26516 1-321)
chain: MPELAVQKVVVHPLVLLSVVDHFNRIGKVGNQKRVVGVLLGSWQKKVLDVSNSFAVPFDEDDKDDSVWFLDHDYLENMYGMFKKVNARERIVGWYHTGPKLHKNDIAINELMKRYCPNSVLVIIDVKPKDLGLPTEAYISVEEVHDDGTPTSKTFEHVTSEIGAEEAEEVGVEHLLRDIKDTTVGTLSQRITNQVHGLKGLNSKLLDIRSYLEKVASGKLPINHQIIYQLQDVFNLLPDASLQEFVKAFYLKTNDQMVVVYLASLIRSVVALHNLINNKIANRDAEKKEGQEKEESKKERKDDKEKEKSDAAKKEEKKEKK
On to B3, for which the binding result is “binds”.
